Results published in article PMC6045555.
No constants are given. Whether binding was seen depends on the method and setting. Binding seen in cells or lysates may run through a third protein. A yes stands for co-enrichment or nearness to the bait. Other partners may have been found.

Molecular target: HSP16.6 carrying a Strep-tag II affinity tag on the C-terminus (Synechocystis sp. PCC 6803)
Assay: affinity purification with mass spectrometry; HSP16.6-Strep held on Strep-Tactin resin (4 °C, 2 h) from the soluble fraction of Synechocystis cells treated at 42 °C 2 h, 1 h recovery at 30 °C, then 30 min at 46 °C; lysis buffer 25 mM HEPES-KOH, 0.2 M NaCl, 0.5% Triton X-100, 1 mM EDTA, pH 7.5; six washes; spots or bands unique to the heat-stressed sample cut from 1D or 2D gels and identified by LC-MS/MS

Row | Binder | binding
1 | RNA polymerase beta subunit (protein, UniProt P77965 1-1102) MTNLATTMLPDLIEIQHASFHWFLEEGLIEELNSFSPISDYTGKLELHFLGKDYKLKQPKYDVDESKRRDASYSVQMYVPTRLINKETGEIKEQEVFIGDLPLMTERGTFIINGAERVIVNQIVRSPGVYYKKELDKNGRRTYSASLIPNRGAWLKFETDKNGLVYVRIDKTRKLSAQVLLKAIGLSDNEILDSLSHPEFYQKTLDKEGNPTEEEALVELYKKLRPGEPPTVSGGQQLLESRFFDPKRYDLGRVGRYKLNKKLRLNEADTTRVLTPQDILAAINYLINLEFDVGTTDDIDHLGNRRVRSVGELLQNQIRVGLNRLERIIRERMTVSESDALTPASLVNPKPLVAAIKEFFGSSQLSQFMDQTNPLAELTHKRRISALGPGGLTRERAGFAVRDIHPSHHGRICPVETPEGPNAGLIGSLATCARVNDYGFIETPYFRVESGRVRKDLDPVYLTADEEDDMRVAPGDIPTDEEGNIIGESVPIRYRQEFSTTSPEQVDYVAVSPVQIISVATSMIPFLEHDDANRALMGSNMQRQAVPLLRPERPLVGTGLEAQAARDSGMVIVSRTHGIVTYVDATEIRVQPHSPDNPAEKGEEIVYPIQKYQRSNQDTCLNQRPLVYAGEDVVPGQVLADGSATEGGELALGQNILVAYMPWEGYNYEDAILISERLVYDDVYTSIHIEKFEIEARQTKLGPEEITREIPNVGEDALRNLDEHGIIRIGAWVESGDILVGKVTPKGEADQPPEEKLLRAIFGEKARDVRDNSLRVPNGEKGRVVDVRVFTREKGDELPPGANMVVRIYVAQKRKIQVGDKMAGRHGNKGIISRILPIEDMPYLPDGRPIDIALNPLGVPSRMNVGQVFECLLGWAGENLGVRFKITPFDEMYGEEASRDTVHGLLEEASQRPNKDWVFNENHPGKIQVFDGRTGEPFDRPITVGQAYMLKLVHLVDDKIHARSTGPYSLVTQQPLGGKAQQGGQRFGEMEVWALEAYGAAYILQELLTVKSDDMQGRNEALNAIVKGKSIPRPGTPESFKVLMRELQSLGLDIAAHKVQLSEDGESADAEVDLMIDSQRRAPNRPTYESLHTEEDLEEEEV | binds
2 | RNA polymerase alpha subunit (protein, UniProt P73297 1-314) MAQFQIECVESSTRKNQQQYSKFSLEPLDRGQGTTVGNALRRVLLSNLPGAAVTAIRIAGVNHEFATILGVREDVLEIMLNMKELVLKSYTDQPQIGRLTAIGPGTVTAAQFEVPSEVEVIDPNQYIATLAEGAKLEMEFRVERGVGYRVIERGKDENSSLDFLQIDSVFMPVTKVNYTVEDIRADGMSPKDRLILDIWTNGSIQPREALSEASDIIANLFIPLKDLNELEAAHSDYQDEVNPESQIPIEELQLSVRAYNCLKRAQINSVADLLEYSQEDLLEIKNFGLKSAEEVIEALQKRLGITLPHEKAKA | binds
3 | ATP-dependent protease ClpP (enzyme, UniProt P54416 1-198) MIPTVIETSGRGDRAFDIYSRLLRERIVFLGQEVRDENANLVVAQLLFLEAEDPEKDIYLYINSPGGSVSAGLGIFDTMNQIRPDVCTICIGLAASMGAFLLSAGAKGKRMSLPNSRIMIHQPLGGAQGQATDIEIQAKEILYLKALLNQHLANHTGKSLEEITADTERDFFMSAEESKEYGLIDQVINRRPSASDPI | binds
4 | GTP-binding protein TypA/BipA homolog (protein, UniProt P72749 1-597) MSLPIRNVAIIAHVDHGKTTLVDALLKQSGIFREGEDVPVCVMDSNDLERERGITILSKNTAVRYQDTLINIVDTPGHADFGGEVERVLGMVDGCVLIVDANEGPMPQTRFVLKKALEKGLRPLVVVNKIDRPRADPNTAVDKVFDLFVELGADDDQCDFTTLFASGLGGFAKESLDDDSEDMKPLFEAILHHVPPPAGDPNKPLQLQVTTLDYSDYLGRIIIGRIHNGTVKAGQQAALVKEDGSIAKGKVSKLLGFEGLNRIELPEASAGYIVAIAGFADANIGETLTCPDEPQALPLIKVDEPTLQMTFSVNDSPFAGQEGKFVTSRQIRDRLNRELETNVALRVEDGESAEQFLVSGRGELHLGILIETMRREGYEFQVAQPQVIYREVNGQPCEPVEYLVLDVPEAAVGACIERLGQRRGEMQDMQTSVNGRTQLEFVIPARGLLGFRGDFIRITRGEGIMNHSFLEYRPMSGDLETRYNGVMVAFEEGVATFYAMKNAEDRGVFFITPGTKVYKGMIIGEHNRPQDIELNVCKTKQLTNHRSATGDELVQLQAPEDMNLERALEYIGPDELVEITPESIRLRKVARKKLVKR | binds
5 | DnaK 3 (protein, UniProt P73098 1-771) MGKVVGIDLGTTNSVVAVMEGGKPIVIANAEGMRTTPSVVGFNKEGELVVGQMGRRQAVLNPQNTFYGVKRFMGRRYTDLTPESKRVAYTIRRDDRDNIKVRCPRLKKDFAPEEISAMILRKLAEEASRYLGEKVTGAVITVPAYFNDSQRQATRDAGKIAGLEVLRIINEPTAASLAYGLDQGRIQKILVFDLGGGTFDVSVLEVGDGIFEVKATSGDTQLGGNDFDRRIVDWLAEKFLEAEKVDLRQDRQALQRLTEAAEKAKIELSGVGTTEINLPFITATEDGPKHLETQLSRSEFEDLCGDLVTRLQRPVKRVLKDAGLSPVQIDEVVLVGGGTRMPMVKGLVRSFIDREPNENVNPDEVVAIGAAIQAGILDGEVKDILLLDVTPLSFGLETIGGVMKKLLPRNTTIPVRKSDIFSTGENNQTVVEVHVLQGEREMASDNISLGRFKLSGIPPAPRGVPQVQVSFDIDANGILQVTARDKTTGREQSITVQGASILSEGEVNRMIQEAETFAAQDRERRERIEKRNSAKALTDQAQRRLKEVTLDFGSAFTVSYRRQVDALCSEILDSLEKDDERRLDRAQADLQDVLYELNREVRLQYDDKEEGFFEAIKKTFTGDFDDDDDYYNRRPAPRDDYRGGNDYGRYDDYNYNAPSRREAPMPRAGAGRGPSLSKDYRSTAYADWDQSRVTRQRPYQGESLGGTYDDRRSSPQDDYSRGDRQKDYDYRENAPSRSGRGGNGRYGERPAQPGRNAPLQNGWDDDDDDWF | binds
6 | 60 kDa chaperonin 1 (protein, UniProt Q05972 1-541) MAKSIIYNDEARRALERGMDILAEAVAVTLGPKGRNVVLEKKFGSPQIINDGITIAKEIELEDHVENTGVSLIRQAASKTNDVAGDGTTTATVLAHAIVKEGLRNVAAGANPISLKRGIDKATDFLVARIKEHAQPVGDSKAIAQVGAISAGNDEEVGQMIANAMDKVGQEGVISLEEGKSMTTELEITEGMRFDKGYISPYFVTDAERMEAVLEDPRILITDKKINLVQDLVPILEQVARQGKPLLIIAEDIEKEALATLVVNRLRGVLNVAAVKAPGFGDRRKQMLEDIATLTGGQVISEDAGLKLESATVDSLGSARRINITKDNTTIVAEGNEAAVKSRCEQIRRQIEETDSSYDKEKLQERLAKLAGGVAVIKVGAATETEMKDRKLRLEDAINATKAAVEEGIVPGGGTTLAHLAPQLEDWATGNLKDEELTGALIVARALPAPLKRIAENAGQNGAVISERVKEKEFNVGYNAASLEYVDMLAAGIVDPAKVTRSALQNAASIAGMVLTTECIVVDKPEKEKAPAGAPGGDFDY | binds
7 | Trigger factor (TF) (protein, UniProt Q55511 1-471) MKVTQEKLPDSQVGLEIEIPATASKKVYENVVKKLTRTVNIPGFRRGKVPRAIVIQRLGQSYIKATAIEELIDDSIKAAVKQEELPIIGNFSLRSDMENLIQIFDPEAPLTIKVAADVFPEAEYEPESYKKITAQAEEIEYSADAVDQWLKGEQEKRATLVPVEDRPAALGDLAIVDYAAFQVAEDGQAGEAIAEVKGSDFEVTLEDGRFVAGIVDGIVGMAVDETKLIPVTFPEDYPLEAVAGEDVLFEIKLKEIKFRELPELDDDFAEDVSEFETMAELKADLEKQFQEQAKQRTDDNIKAAIKKKLGELFTGDLPETMIKQECDRLVAQTAMELERMGLDVSQLFRQGDDMLQTLKDNSRPEAIANLKTDLMIGAIAKEEKIQPTEAEVKERCDELRQEFKGEKIDESRLVNFVESSLTESKVLDLLKEWADVELLPEGSLSQTEEDTPDDDAEEEAIVDVEATSDEE | binds
8 | Peptidyl-prolyl cis-trans isomerase (enzyme, UniProt P73789 1-171) MMSKVFFDITIGSDTAGRIVMELFDEVTPKTAENFRALCTGEKGVGKAGKPLHFKGSHFHRVITDFMAQGGDFTRGNGTGGESIYGEKFADENFQLKHDRPGLLSMANAGPNTNGSQFFLTFVPCPWLDGKHVVFGEVVEGLEILEQLEANGSQSGQTKQAIVISDCGEIK | binds
9 | Fructose-bisphosphate aldolase, class II (enzyme, UniProt Q55664 1-359) MALVPMRLLLDHAAENGYGIPAFNVNNMEQIISIMQAADETDSPVILQASRGARSYAGENFLRHLVLGAVETYPHIPIAMHQDHGNSPATCYSAIRNGFTSVMMDGSLEADAKTPASFEYNVNVTAEVVKVAHSVGASVEGELGCLGSLETGQGEAEDGHGFEGKLDHSQLLTDPEEAVEFVNKTQVDALAVAIGTSHGAYKFTRKPTGEVLAISRIEEIHRLLPNTHLVMHGSSSVPQEWIDMINEFGGAIPETYGVPVEEIQKGIKSGVRKVNIDTDNRLAITAAFREAAAKDPKNFDPRHFLKPSIKYMKQVCADRYQQFWTAGNASKIKQLTLDDYAAKYAKGELTATSRTSVAV | binds
